B1: Coronatine-insensitive 1 (COI1) in pB42AD (pB42AD:COI1) (protein, UniProt O04197 1-592)
chain: MEDPDIKRCKLSCVATVDDVIEQVMTYITDPKDRDSASLVCRRWFKIDSETREHVTMALCYTATPDRLSRRFPNLRSLKLKGKPRAAMFNLIPENWGGYVTPWVTEISNNLRQLKSVHFRRMIVSDLDLDRLAKARADDLETLKLDKCSGFTTDGLLSIVTHCRKIKTLLMEESSFSEKDGKWLHELAQHNTSLEVLNFYMTEFAKISPKDLETIARNCRSLVSVKVGDFEILELVGFFKAAANLEEFCGGSLNEDIGMPEKYMNLVFPRKLCRLGLSYMGPNEMPILFPFAAQIRKLDLLYALLETEDHCTLIQKCPNLEVLETRNVIGDRGLEVLAQYCKQLKRLRIERGADEQGMEDEEGLVSQRGLIALAQGCQELEYMAVYVSDITNESLESIGTYLKNLCDFRLVLLDREERITDLPLDNGVRSLLIGCKKLRRFAFYLRQGGLTDLGLSYIGQYSPNVRWMLLGYVGESDEGLMEFSRGCPNLQKLEMRGCCFSERAIAAAVTKLPSLRYLWVQGYRASMTGQDLMQMARPYWNIELIPSRRVPEVNQQGEIREMEHPAHILAYYSLAGQRTDCPTTVRVLKEPI
B2: JAZ9 fused to the B42 transcriptional activation domain (pB42AD:JAZ9) (protein, UniProt Q8W4J8 1-267)
chain: MERDFLGLSDKQYLSNNVKHEVNDDAVEERGLSTKAAREWGKSKVFATSSFMPSSDFQEAKAFPGAYQWGSVSAANVFRRCQFGGAFQNATPLLLGGSVPLPTHPSLVPRVASSGSSPQLTIFYGGTISVFNDISPDKAQAIMLCAGNGLKGETGDSKPVREAERMYGKQIHNTAATSSSSATHTDNFSRCRDTPVAATNAMSMIESFNAAPRNMIPSVPQARKASLARFLEKRKERLMSAMPYKKMLLDLSTGESSGMNYSSTSPT
B3: JAZ4 fused to the B42 transcriptional activation domain (pB42AD:JAZ4) (protein, UniProt Q58G47 1-310)
chain: MERDFLGLGSKLSPITVKEETNEDSAPSRGMMDWSFSSKVGSGPQFLSFGTSQQETRVNTVNDHLLSSAAMDQNQRTYFSSLQEDRVFPGSSQQDQTTITVSMSEPNYINSFINHQHLGGSPIMAPPVSVFPAPTTIRSSSKPLPPQLTIFYAGSVLVYQDIAPEKAQAIMLLAGNGPHAKPVSQPKPQKLVHHSLPTTDPPTMPPSFLPSISYIVSETRSSGSNGVTGLGPTKTKASLASTRNNQTAAFSMAPTVGLPQTRKASLARFLEKRKERVINVSPYYVDNKSSIDCRTLMSECVSCPPAHHLH
B4: JAZ10 fused to the B42 transcriptional activation domain (pB42AD:JAZ10) (protein, UniProt Q93ZM9 1-197)
chain: MSKATIELDFLGLEKKQTNNAPKPKFQKFLDRRRSFRDIQGAISKIDPEIIKSLLASTGNNSDSSAKSRSVPSTPREDQPQIPISPVHASLARSSTELVSGTVPMTIFYNGSVSVFQVSRNKAGEIMKVANEAASKKDESSMETDLSVILPTTLRPKLFGQNLEGDLPIARRKSLQRFLEKRKERLVSTSPYYPTSA

These are yes or no findings as the source states them, for the method shown. Binding calls can cover weak binding; strength is not graded here. Where a sequence is shown, tags or fusion partners need not be part of it.

This assay addresses HaRxL10 fused to the LexA DNA binding domain (pGilda:HaRxL10) (Hyaloperonospora arabidopsidis). Put plainly: two-hybrid.
Turning to B1, the binding result was “no binding”.

Turning to B2, the binding entry was “binds”.

Regarding B3, the binding result is on record as “binds”.

On to B4, for which the binding entry is “no binding”.

The record behind these values is publication doi:10.1101/561605.
